Experimental data reported in patent publication US20040265341A1, “Prevention of uveitis” (Kings College London, priority 2003, published 2004).
Some results were stated once for a whole list of compounds, not compound by compound.

Test system: PBMC
Format: cell-based, human

QPHDLGKVGEVIVTKD [p336-351] was tested, and the “stimulation index (SI), individual patients” value (before tolerising regime, 5 patients in whom uveitis was prevented) was under 2 and the “stimulation index (SI)” value (prevented group, end of 9 months after all treatment had ceased) was under 2.
